PMC12310818

How the values were obtained:
[1] = system: His-MsAREB1 (Medicago sativa (alfalfa)); assay: EMSA; details: Chemiluminescent EMSA kit (GS009, Beyotime), pH and temperature not stated, recombinant protein, protein details: His (pCold-His vector), label: biotin
[2] = system: His-MsILR3 (Medicago sativa (alfalfa)); assay: EMSA; details: Chemiluminescent EMSA kit (GS009, Beyotime), pH and temperature not stated, recombinant protein, protein details: His (pCold-His vector), label: biotin
[3] = system: His-MsAREB1 (Medicago sativa (alfalfa)); assay: competition with a labelled probe; details: unlabelled competitor against biotin N1 decreased binding; Chemiluminescent EMSA kit (GS009, Beyotime); pH and temperature not stated; recombinant protein; protein details: His (pCold-His vector)
[4] = system: His-MsILR3 (Medicago sativa (alfalfa)); assay: competition with a labelled probe; details: increasing unlabelled competitor against biotin N1 decreased binding; Chemiluminescent EMSA kit (GS009, Beyotime); pH and temperature not stated; recombinant protein; protein details: His (pCold-His vector)

Sequence	binding result [1]	binding result [2]	binding result ([1]; with His-MsILR3 at 1- and 2-fold MsAREB1)	binding result ([2]; with His-MsAREB1 (MsILR3 at 1- and 2-fold MsAREB1), signal rose with more MsILR3)	binding result [3]	binding result [4]
TGGCAACTGCTTCATGTGCTTCAAAA (double strand) [mMsMIOX2 promoter G-box mutant probe]	no binding	no binding				
TGGCAACTGCCACGTGTGCTTCAAAA (double strand) [MsMIOX2 promoter G-box probe]	binds	binds	binds more weakly	binds more weakly		
TGGCAACTGCCACGTGTGCTTCAAAA (double strand) [Unlabelled MsMIOX2 promoter G-box competitor]					binds	binds

For at least one entry, the source does not settle the construct or the ends of the probe. For some assays here: A negative result means that nothing was seen under these conditions. For some assays here: The comparison behind a weaker result is the experiment's own reference, which may not be listed here.
